# Measured values published in PubChem BioAssay AID493014 (National Center for Advancing Translational Sciences (NCATS), 2011).
# This is one part of the list. The main result of the screen is listed elsewhere. These columns were measured beside it and carry no call. Compounds called inactive in the main read-out are mostly missing here. Words in brackets tell the shape of the fitted curve; partial curves, single points and poor fits give uncertain potencies.
# Experiment: qHTS Assay to Find Inhibitors of Chronic Active B-Cell Receptor Signaling
# Conditions: ABC-DLBCL IkBa-CBG/CBR reporter, luminescence ratio (green luciferase fused to IkBa over red control in TMD8 lymphoma cells), 4 h
# Summary of the method: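 Cell line TMD8 (human ABC DLBCL), stably expressing tet-inducible CBG68-IkBa fusion and CBR; IMDM/0.5% FBS; cpd up to 46 uM; dox induction, 4 h, 37C/5% CO2; dual luminescence; green/red ratio; MG132 control.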
# [1] = measured here: CBR red luminescence, cell number
# [2] = measured here: IkBa-CBG green luminescence
Structure (SMILES),AC50 [1],AC50 [2]
O=c1[nH]c(C2CCN(S(=O)(=O)c3ccc4c(c3)OCCO4)CC2)nc2c1nnn2Cc1cccc(F)c1,"35.5 µM [falling, single point]",
COc1ccc(-n2c(C)cc(/C=C3\SC(=O)NC3=O)c2C)cc1,"25.1 µM [rising, single point]",
CCOC(=O)N1CCC(Nc2nc3ccccc3nc2NS(=O)(=O)c2ccc(Cl)cc2)CC1,"1.16 µM [falling, full curve]",
CCOC(=O)c1[nH]c2ccc(OC)cc2c1NC(=O)CCN1CCC(C)CC1,"3.26 µM [rising, partial curve, poor fit]",
O=C(Nc1ncc(Cc2ccc(SC(F)F)cc2)s1)c1ccccc1,"31.6 µM [rising, single point]","10 µM [falling, partial curve]"
Cc1ccccc1N1C(=O)c2cccc3cccc(c23)C1=O,"12.6 µM [rising, single point]",
CSc1nccc(N/N=C/c2ccccc2)n1,"2.24 µM [falling, full curve]",
Fc1ccc2nc(Nc3nc4c(F)cccc4s3)sc2c1,"32.6 µM [falling, single point]",
CSc1cccc(NC(=O)C(=O)NCc2ccccc2)c1,"6.31 µM [falling, single point]",
CCCCCc1n[nH]c2c1CCCC2,"35.5 µM [rising, single point]",
CCOC(=O)C1CCN(S(=O)(=O)c2ccc(CNC(=O)c3ccccc3)s2)CC1,"17.8 µM [falling, single point]",
Cc1ccc(S(=O)(=O)Nc2ccc3c(c2)nc(CCN2CCCC2)n3C)cc1,"25.1 µM [falling, single point]",
N#Cc1cc2c(nc1SCc1ccncc1)CCC2,"36.6 µM [falling, partial curve, poor fit]",
CC(=O)N[C@@H](CS)C(=O)O,"2.31 µM [rising, partial curve]",
COC(=O)/C(C#N)=C/N(C)C,"15.8 µM [rising, single point]",
CCN(CC)c1cccc(OC2=NS(=O)(=O)c3ccccc32)c1,"12.6 µM [falling, partial curve, poor fit]",
Cc1ccnc(NC(=O)/C=C/c2ccccc2[N+](=O)[O-])c1,"12.6 µM [falling, single point]",
O=C(c1ccc2nc[nH]c2c1)N1CCN(c2cccc(Cl)c2)CC1,"25.1 µM [rising, single point]","17.8 µM [falling, partial curve, poor fit]"
O=C(O)C1C2CCC(O2)C1C(=O)Nc1ccc(Cl)cc1F (stereo not given),"35.5 µM [rising, single point]",
CCSc1nnc(NC(=O)c2cccc(OCc3c(C)noc3C)c2)s1,"22.4 µM [falling, single point]",
Cc1ccc(NC(=O)N2CCc3ccccc32)cc1C,"12.6 µM [falling, partial curve, poor fit]",
CN1C(=O)S/C(=C\c2ccccc2OCc2ccc(C(=O)O)cc2)C1=O,"7.08 µM [falling, full curve, poor fit]",

Structure (SMILES),AC50 [1],AC50 [2]
COc1ccccc1CNC(=O)CSC(=S)N1CCCC1,"18.4 µM [rising, partial curve]","16.4 µM [falling, partial curve]"
O=C(c1ccco1)N(CCC(c1ccccc1)c1ccco1)Cc1ccccc1 (stereo not given),"20.6 µM [falling, single point]",
COc1ccc(C(=O)c2ccc(N3CCN(C(=O)c4ccc(F)cc4)CC3)c(F)c2)cc1Br,"1.64 µM [rising, single point]",
COc1ccc(CCNC(=O)c2cc(-c3ccc(C)cc3O)n[nH]2)cc1OC,"1.46 µM [falling, full curve, poor fit]",
CC(=O)c1ccc(NC(=O)C2CCC(C)NC2=O)cc1 (stereo not given),"0.326 µM [falling, partial curve, poor fit]",
Cc1csc2ncnc(N3CCN(C(=S)Nc4ccc(F)cc4F)CC3)c12,"1.26 µM [rising, partial curve, poor fit]",
COc1cccc(C2=CC(c3ccccc3)n3ncnc3N2)c1 (stereo not given),"3.16 µM [falling, full curve, poor fit]",
COc1cccc(-c2csc(N3CCN(C(=O)Nc4ccc(F)cc4)CC3)n2)c1,"29.1 µM [falling, single point]",
COc1cc(C(=O)Nc2cc(C)c(OCC(=O)N3CCOCC3)c(C)c2)cc(OC)c1OC,"12.6 µM [rising, partial curve, poor fit]",
CCC(=O)Nc1cccc(NC(=S)NC(=O)c2ccccc2Cl)c1,"0.562 µM [falling, full curve, poor fit]",
CC1(C)Cc2c(c(=S)nc(-c3ccccc3)n2CCO)CO1,"29.1 µM [rising, single point]",
CC(=O)Nc1cccc(NC(=O)COc2ccc3c(c2)CCC3)c1,"9.2 µM [falling, partial curve, poor fit]",
CCn1c(=O)cc(SCC(=O)NCc2ccccn2)c2ccccc21,"35.5 µM [falling, single point]",
CC(=O)Nc1ccc(NC(=O)CCCNC(=O)c2ccc(Cl)cc2)cc1,"15.8 µM [rising, partial curve, poor fit]",
Cc1cc(N/N=C/c2ccncc2)c([N+](=O)[O-])cc1[N+](=O)[O-],"0.794 µM [rising, full curve, poor fit]",
Cc1cc(C)n(CC(O)COc2ccccc2Br)n1 (stereo not given),"0.501 µM [falling, full curve, poor fit]",
CCOC(=O)CN(C(=O)COC(=O)C1=NNC(=O)CC1)c1ccc(F)cc1,"29.1 µM [falling, partial curve, poor fit]",
COc1ccc(CCNC(=O)c2ccc(Cl)cc2Cl)cc1,"16.4 µM [rising, single point]",
O=C(CCl)N=c1sccn1Cc1cccc2ccccc12,"12.6 µM [falling, partial curve, poor fit]",
CC(=O)C1=C(N2CCCCC2)CCC1=O,"6.51 µM [falling, single point]","2.91 µM [rising, partial curve, poor fit]"
Cc1ccc(Cc2c[nH]c(=S)s2)cc1,"5.62 µM [rising, single point]",
CCOc1cccc(N2C(=O)CC(N3CCN(c4nc5ccccc5s4)CC3)C2=O)c1 (stereo not given),"0.651 µM [rising, full curve, poor fit]","1.64 µM [falling, partial curve, poor fit]"

Structure (SMILES),AC50 [1],AC50 [2]
COc1ccc(C(=O)OCCN2CCCCC2)cc1,"1 µM [rising, partial curve, poor fit]",
Clc1ccc(-c2csc(N3CCSCC3)n2)cc1,"32.6 µM [rising, single point]",
CC1(OC(=O)C2CCCC2)C(=O)C=C2C=C(c3ccsc3)N(C(CO)CO)C=C2C1=O (stereo not given),"35.5 µM [rising, single point]",
COc1cccc(/C=C(/CC(=O)Nc2ccc(N3CCOCC3)cc2)c2nc3ccccc3s2)c1,"13 µM [falling, partial curve]",
N#Cc1nnn(Cc2ccccc2)c1N,"12.6 µM [falling, partial curve]",
COc1cccc(/C=C2\Oc3cc(OCC(=O)N4CCCC4)ccc3C2=O)c1OC,"25.1 µM [falling, single point]",
CCCCNC(=O)NCCN1CCOCC1,"6.31 µM [rising, single point]",
CCc1ccccc1N(CC(=O)NCc1ccco1)C(=O)c1snc(C(N)=O)c1N,"12.6 µM [falling, single point]",
Cc1ccc(-c2nc(S(=O)(=O)c3ccc(C)cc3)c(N3CCOCC3)o2)cc1,"15.8 µM [rising, partial curve, poor fit]",
O=C(N/N=C/c1ccc(Cl)s1)C(O)c1ccccc1 (stereo not given),"35.5 µM [falling, single point]",
COc1ccc(NC(=O)CO/N=C2/CCCc3nonc32)c(OC)c1,"35.5 µM [falling, single point]",
CC(Sc1nc(N)cc(N)n1)C(=O)NCCC1=CCCCC1 (stereo not given),"6.51 µM [falling, single point]",
COc1ccc(C(=O)N2CCC(C(=O)Nc3ccc(OC)c(OC)c3)CC2)cc1,"0.562 µM [falling, full curve]",
Cc1cc(N)n2nc(-c3ccccc3)cc2n1,"1.16 µM [falling, full curve, poor fit]",
Cc1cc2ccc(C)c(C)c2nc1SCC(=O)c1cccs1,"16.4 µM [rising, single point]",
Cc1cc(NC(=O)c2ccc([N+](=O)[O-])o2)ccc1NC(=O)c1ccco1,"35.5 µM [falling, single point]",
CCOC(=O)N1CCN(c2c(NCCN3CCN(c4ccccc4F)CC3)c(=O)c2=O)CC1,"22.4 µM [rising, single point]",
COC(=O)CCC(=O)Nc1cccc(Br)c1,"0.461 µM [rising, single point]",
N#CCCCSc1nnc(-c2ccc(Cl)cc2)n1-c1ccccc1,"11.2 µM [falling, partial curve, poor fit]",
Cn1c(-c2ccccc2)c(C(=O)CCl)c2ccccc21,"8.91 µM [falling, partial curve, poor fit]",
CCc1nnc(NC(=O)CSc2ncnc3c2oc2ccccc23)s1,"2.06 µM [falling, partial curve]",

# Quoted at random: five compounds from above
Structure (SMILES),AC50 [1],AC50 [2]
Cc1cc(NC(=O)c2ccc([N+](=O)[O-])o2)ccc1NC(=O)c1ccco1,"35.5 µM [falling, single point]",
CCOC(=O)c1[nH]c2ccc(OC)cc2c1NC(=O)CCN1CCC(C)CC1,"3.26 µM [rising, partial curve, poor fit]",
Cc1cc(N/N=C/c2ccncc2)c([N+](=O)[O-])cc1[N+](=O)[O-],"0.794 µM [rising, full curve, poor fit]",
N#Cc1cc2c(nc1SCc1ccncc1)CCC2,"36.6 µM [falling, partial curve, poor fit]",
COc1cc(C(=O)Nc2cc(C)c(OCC(=O)N3CCOCC3)c(C)c2)cc(OC)c1OC,"12.6 µM [rising, partial curve, poor fit]",
